What is called AC50 is the concentration giving half of the maximal activity seen.

The other results are listed elsewhere or left out. Shown are side measurements of this screen, not its main read-out; they come without a call. The list favours compounds with an active or inconclusive main result. The note in brackets gives the kind of curve behind each potency; many fits are weak.

This experiment in a line: qHTS Assay for Modulators of Lamin A Splicing. The settings on record: HeLa LMNA splicing GFP/RFP minigene ratio, 48 h. The gist of the method:
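S3 HeLa stable clones carrying a lamin A-EGFP splicing minigene plus DsRed2 were seeded at 600 cells/well in Opti-MEM with 2% FBS, pin-dosed and incubated 48 h at 37°C. Acumen cytometry (488 nm) gave the GFP/RFP total-intensity ratio.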

Setting [1] is: measured here: RFP viability control channel.
Setting [2] is: measured here: GFP splicing reporter channel.

For the compound `Cc1cccc(Cn2ncc(Cl)c(Cl)c2=O)c1`, under setting [1], the half-maximal activity concentration (AC50) is 25.1 µM [falling, single point].

In the case of `COc1ccccc1C(=O)NCc1ccc2c(c1)CCN2C(=O)c1cccc(C)c1`, the AC50 is 20 µM [falling, partial curve] under setting [2] and 35.5 µM [falling, partial curve, poor fit] under setting [1].

Take `COC(=O)c1ccc(Cl)c(NC(=O)c2cccc([N+](=O)[O-])c2C)c1`: the concentration at half-maximal activity (AC50) under setting [1] was 0.02 µM [falling, full curve, poor fit].

`Cc1ccc2[nH]c3c(c2c1)CCCC3=O`: the AC50 under setting [1] is 7.08 µM [falling, partial curve].

`N#CC(c1ccccc1)N(CCCCl)C(=O)c1ccc(Br)cc1` (configuration not stated): the concentration at half-maximal activity (AC50) is 14.1 µM [rising, single point] under setting [2] and 17.8 µM [rising, single point] under setting [1].

Regarding `COc1ccc(NC(=O)Cn2nnc(C(=O)NCCc3ccc(OC)c(OC)c3)c2N)c(OC)c1`, under setting [1], the AC50 was 0.398 µM [falling, partial curve, poor fit].

`Cc1ccc(S(=O)(=O)N2CCC(=O)N(C(COCc3cccc(C(F)(F)F)c3)Cc3ccccc3)CC2)cc1` (configuration not stated): the AC50 under setting [1] was 12.6 µM [rising, partial curve].

Regarding `CCOC(=O)c1cnn(-c2ccccc2)c1-n1cccc1C(=O)C(=O)Nc1ccccc1`, the AC50 under setting [1] was 35.5 µM [rising, single point].

With `O=C(O)/C=C/C(=O)Nc1ccc(C(=O)c2ccccc2)cc1`, the AC50 under setting [2] was 12.6 µM [falling, partial curve, poor fit].

For `CCOC(=O)c1c(-c2ccccc2)csc1NC(=S)NC(=O)c1ccccc1`, the AC50 under setting [1] was 10 µM [rising, partial curve, poor fit].

Take `CN1CCN(C(c2ccc(F)cc2)c2sc3nc(-c4ccco4)nn3c2O)CC1` (configuration not stated): the AC50 under setting [2] was 6.31 µM [falling, partial curve, poor fit].

Regarding `O=C(NC1CCCCCCC1)C1CCN(c2nc3ccccc3o2)CC1`, the AC50 under setting [1] is 7.08 µM [rising, partial curve, poor fit].

`CCc1nc2sccc2c(=O)n1N`: under setting [2], the AC50 was 0.224 µM [rising, full curve, poor fit].

In the case of `O=S(=O)(c1ccccc1)N(CC1CO1)c1ccccc1` (configuration not stated), under setting [2], the AC50 is 17.8 µM [falling, single point].

With `Cc1cc(NC(=O)CSc2nc3c([nH]c4ccccc43)c(=O)n2-c2cccc(Cl)c2)no1`, under setting [2], the AC50 is 2.51 µM [falling, partial curve].

As to `CCn1cc(C(=O)O)c(=O)c2cc(F)c(N3CCNCC3)nc21`, under setting [1], the AC50 is 1.26 µM [rising, partial curve, poor fit].

Turning to `COC(=O)[C@H]1[C@H]2CC3c4[nH]c5ccccc5c4CCN3C[C@@H]2CC[C@@H]1O` (some centres not stated), the AC50 by setting is: under setting [2], 35.5 µM [falling, single point]; under setting [1], 35.5 µM [falling, single point].

Take `C/C(=N\NC(N)=O)c1ccc(Cl)cc1`: the AC50 is, setting by setting: under setting [2], 35.5 µM [falling, single point]; under setting [1], 35.5 µM [falling, single point].

For the compound `CC(C)CNC(=S)N1CCC(C(=O)c2ccc3c(c2)OCCO3)CC1`, the AC50 under setting [2] was 0.0282 µM [rising, full curve, poor fit].

On to `COc1ccc(CNS(=O)(=O)c2cc(C(=O)Nc3cc(Cl)cc(Cl)c3)ccc2F)cc1`, for which the AC50 reads like this: under setting [2], 14.1 µM [falling, single point]; under setting [1], 25.1 µM [falling, single point].

With `C=C1CC[C@H](O)C/C1=C/C=C1\CCC[C@]2(C)[C@H]1CC[C@H]2[C@@H](C)/C=C\[C@@H](C)C(C)C`, the AC50 under setting [1] is 0.1 µM [rising, full curve, poor fit].

`Cc1ccc(N2NC(=O)/C(=C\c3cc4c(cc3[N+](=O)[O-])OCO4)C2=O)cc1C`: the AC50 runs as follows: under setting [2], 17.8 µM [rising, single point]; under setting [1], 12.6 µM [rising, single point].

With `COc1cc(OC)cc(C2=NCCN2)c1`, under setting [2], the AC50 was 0.891 µM [rising, full curve].

Take `CCOC(=O)c1cc2cc(OC)ccc2[nH]1`: the AC50 was 15.8 µM [rising, partial curve] under setting [2] and 12.6 µM [rising, partial curve] under setting [1].

On to `COc1cccc(S(=O)(=O)Nc2ccc(C(=O)N3CCN(C(=O)c4ccco4)CC3)cc2)c1`, for which the AC50 under setting [1] is 11.2 µM [rising, partial curve].

As for `Cc1cccc(S(=O)(=O)Nc2nc3ccccc3nc2Nc2ccc3c(c2)OCO3)c1`, the AC50 under setting [2] is 0.00891 µM [rising, single point] and the AC50 under setting [1] is 5.62 µM [rising, single point].

Turning to `CC(/C=N/N1CCN(Cc2ccccc2)CC1)=C\c1ccccc1`, the AC50 is 0.631 µM [falling, partial curve] under setting [2] and 3.16 µM [falling, partial curve, poor fit] under setting [1].

With `c1ccc(OCCSc2nc3ccccc3o2)cc1`, the AC50 under setting [2] is 31.6 µM [rising, single point].

For the compound `O=C(COc1ccccc1-c1ccccc1)N/N=C/c1cccnc1`, the AC50 runs as follows: under setting [2], 20 µM [rising, partial curve, poor fit]; under setting [1], 11.2 µM [rising, partial curve, poor fit].

For `COC(=O)c1ccc(Cl)c(NC(=O)CN(c2ccccc2)S(=O)(=O)c2ccc(OC)cc2)c1`, under setting [1], the AC50 is 25.1 µM [rising, single point].

As for `C#CCn1cc(/C=N/Nc2nc3ccccc3[nH]2)c2ccccc21`, the AC50 under setting [1] was 14.1 µM [rising, single point].

As for `Cc1ccccc1[C@@H](OCCN(C)C)c1ccccc1`, the AC50 under setting [2] was 0.00501 µM [falling, full curve, poor fit].

Consider `Cc1ccc(-c2noc(CSc3nc(N)cc(N)n3)n2)cc1`, for which the AC50 under setting [1] was 14.1 µM [rising, partial curve, poor fit].

Regarding `CCc1nc2ccccc2c(=O)n1NCCc1ccccc1`, under setting [1], the AC50 is 3.98 µM [rising, full curve, poor fit].

`CC1=CC(C)(C)N2C(=O)C3(NCCc4c3[nH]c3ccccc43)c3cccc1c32` (configuration not stated): under setting [1], the AC50 was 12.6 µM [falling, single point].

Turning to `O=C(c1ccc(C(F)(F)F)cc1)N1CCC(=O)N(C(COCc2ccc(Cl)cc2)Cc2ccccc2)CC1` (configuration not stated), the half-maximal activity concentration (AC50) reads like this: under setting [2], 14.1 µM [rising, partial curve]; under setting [1], 22.4 µM [rising, single point].

For the origin of these results see PubChem BioAssay AID1487 (National Center for Advancing Translational Sciences (NCATS), 2009).
